Source: patent publication US6340678B1, “4,4-difluoro-2,3,4,5-tetrahydro-1H-1-benzoazepine derivatives and drug compositions containing them” (Yamanouchi Pharmaceutical Co., Ltd., priority 1997, dated 2002)

Protein sequences, listed by entry. Tags and fused reporters are not part of them.
UniProt P70536, whole entry: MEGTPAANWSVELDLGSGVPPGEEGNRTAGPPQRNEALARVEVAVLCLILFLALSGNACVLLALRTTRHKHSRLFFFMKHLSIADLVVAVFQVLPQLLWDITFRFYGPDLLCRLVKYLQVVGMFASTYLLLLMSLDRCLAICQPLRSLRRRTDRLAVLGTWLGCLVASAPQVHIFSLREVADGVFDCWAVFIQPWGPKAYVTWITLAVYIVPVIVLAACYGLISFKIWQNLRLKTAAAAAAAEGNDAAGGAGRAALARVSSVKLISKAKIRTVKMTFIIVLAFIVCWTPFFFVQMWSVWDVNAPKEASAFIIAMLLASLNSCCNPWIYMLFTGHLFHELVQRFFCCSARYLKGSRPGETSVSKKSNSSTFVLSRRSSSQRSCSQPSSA

Target: oxytocin receptor (Rattus norvegicus, UniProt P70536)
Assay: Oxytocin receptor binding assay ([3H]-oxytocin, rat uterine membrane sample)
Conditions: [3H]-oxytocin 0.5 nM, room temperature, 60 minutes

## O=C1CCN(C(=O)/C=C2/c3ccccc3N(C(=O)c3ncn(-c4ccccc4)c3C(F)(F)F)CCC2(F)F)CC1
  pKi (negative logarithmic value of Ki) in the oxytocin receptor binding test: 8.87

The structures given here were assigned with low confidence; some may be wrong.
